The source of these data is patent US20240262835A1, “PRMT5 INHIBITING COMPOUNDS AND USES THEREOF” (ANTENGENE DISCOVERY LIMITED, priority 2023, published 2024).

Molecules are shown by their SMILES.

Series [1] can be described thus: in vitro. The conditions noted are these: human, microsomes.
Series [2] in a line: in vitro. The settings on record: rat, microsomes.
Series [3] is described as follows: in vitro. The conditions noted are these: dog, microsomes.
A short description of series [4]: in vitro. The conditions noted are these: cynomolgus monkey, microsomes.

The term CLint scaled denotes the capacity of the preparation to metabolise the compound, expressed as a volume cleared per time. The low end stands for greater metabolic stability, the high end for faster metabolism. One may read the microsomal CLint as a measure of how fast metabolising enzymes remove a compound, apart from limits set by blood flow. A high value points to rapid turnover. In the case of `CCCNCC(O)COc1ccccc1C(=O)CCc1ccccc1` (centres unmarked) [Ref. 6, Propafenone], the CLint scaled at 1 μM in series [1] stood at 246 mL/min/kg; in series [2] it was 1830 mL/min/kg; in series [3] it was 440 mL/min/kg; in series [4], 1440 mL/min/kg. For the same compound, the microsomal CLint at 1 μM in series [1] was found to be 273 µL/min/mg; in series [2], 1020 µL/min/mg; in series [3] it was 306 µL/min/mg; in series [4] it was 1070 µL/min/mg.
